Measurements as given in the supplement of paper PMC10849652.
The other results are listed elsewhere or left out.

The chains behind the UniProt entries cited, without tags or fusion partners. Where a name states a change or a piece, a line headed by the entry shows the natural chain unless it says otherwise.
UniProt Q9Y225: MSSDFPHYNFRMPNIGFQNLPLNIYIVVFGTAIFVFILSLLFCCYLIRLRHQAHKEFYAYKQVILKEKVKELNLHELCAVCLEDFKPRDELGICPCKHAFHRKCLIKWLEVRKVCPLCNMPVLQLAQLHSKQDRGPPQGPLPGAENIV
UniProt Q9BXT8: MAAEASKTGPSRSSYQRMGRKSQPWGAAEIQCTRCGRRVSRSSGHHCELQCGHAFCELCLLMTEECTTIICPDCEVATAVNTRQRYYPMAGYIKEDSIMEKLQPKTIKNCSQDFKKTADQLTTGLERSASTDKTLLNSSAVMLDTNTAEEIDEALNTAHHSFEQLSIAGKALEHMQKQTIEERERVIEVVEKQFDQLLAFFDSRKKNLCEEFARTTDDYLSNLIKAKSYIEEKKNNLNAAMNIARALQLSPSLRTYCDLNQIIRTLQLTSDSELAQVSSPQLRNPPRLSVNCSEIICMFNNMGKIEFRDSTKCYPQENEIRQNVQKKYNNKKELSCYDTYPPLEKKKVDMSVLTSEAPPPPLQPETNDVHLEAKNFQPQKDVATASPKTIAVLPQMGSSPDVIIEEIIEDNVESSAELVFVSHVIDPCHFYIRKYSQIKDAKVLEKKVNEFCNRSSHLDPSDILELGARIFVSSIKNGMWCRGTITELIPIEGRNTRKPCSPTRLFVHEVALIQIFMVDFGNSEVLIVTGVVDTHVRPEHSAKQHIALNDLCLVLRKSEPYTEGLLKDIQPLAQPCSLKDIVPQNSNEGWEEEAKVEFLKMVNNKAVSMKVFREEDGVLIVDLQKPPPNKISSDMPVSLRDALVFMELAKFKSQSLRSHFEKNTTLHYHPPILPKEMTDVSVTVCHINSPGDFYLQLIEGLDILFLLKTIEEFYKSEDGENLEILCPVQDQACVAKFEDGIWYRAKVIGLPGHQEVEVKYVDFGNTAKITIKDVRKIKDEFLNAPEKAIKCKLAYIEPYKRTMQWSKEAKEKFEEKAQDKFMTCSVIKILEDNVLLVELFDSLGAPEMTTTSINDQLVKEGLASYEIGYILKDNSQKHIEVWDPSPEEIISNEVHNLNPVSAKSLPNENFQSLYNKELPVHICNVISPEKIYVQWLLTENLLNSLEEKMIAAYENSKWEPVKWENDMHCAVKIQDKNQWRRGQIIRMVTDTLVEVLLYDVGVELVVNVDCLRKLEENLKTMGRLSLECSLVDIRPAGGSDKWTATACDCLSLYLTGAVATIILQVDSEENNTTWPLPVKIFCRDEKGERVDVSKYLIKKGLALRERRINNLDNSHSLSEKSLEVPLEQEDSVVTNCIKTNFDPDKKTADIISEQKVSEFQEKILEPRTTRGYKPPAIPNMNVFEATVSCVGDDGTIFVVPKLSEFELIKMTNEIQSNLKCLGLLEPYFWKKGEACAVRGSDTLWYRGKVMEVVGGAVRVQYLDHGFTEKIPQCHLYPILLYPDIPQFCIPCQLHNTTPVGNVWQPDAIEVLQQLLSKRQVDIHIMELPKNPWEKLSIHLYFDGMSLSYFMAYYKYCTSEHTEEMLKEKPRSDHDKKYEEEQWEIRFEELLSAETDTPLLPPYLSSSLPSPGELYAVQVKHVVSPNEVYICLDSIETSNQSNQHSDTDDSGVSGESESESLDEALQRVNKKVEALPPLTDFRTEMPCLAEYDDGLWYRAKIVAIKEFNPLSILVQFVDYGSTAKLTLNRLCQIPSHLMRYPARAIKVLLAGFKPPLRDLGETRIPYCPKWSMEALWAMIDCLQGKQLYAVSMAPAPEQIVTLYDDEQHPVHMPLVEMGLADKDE
UniProt Q96E14: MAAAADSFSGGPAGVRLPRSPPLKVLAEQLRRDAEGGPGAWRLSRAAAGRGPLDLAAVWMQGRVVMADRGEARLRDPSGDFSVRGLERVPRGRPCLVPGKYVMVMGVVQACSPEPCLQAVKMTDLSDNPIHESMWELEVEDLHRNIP
UniProt P17081: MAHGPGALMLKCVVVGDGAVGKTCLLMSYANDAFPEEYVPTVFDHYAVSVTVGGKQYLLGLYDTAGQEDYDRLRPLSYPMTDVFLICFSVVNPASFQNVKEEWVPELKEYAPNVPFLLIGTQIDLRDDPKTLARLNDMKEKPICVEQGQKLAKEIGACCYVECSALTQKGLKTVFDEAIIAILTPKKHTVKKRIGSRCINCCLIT
UniProt O76064: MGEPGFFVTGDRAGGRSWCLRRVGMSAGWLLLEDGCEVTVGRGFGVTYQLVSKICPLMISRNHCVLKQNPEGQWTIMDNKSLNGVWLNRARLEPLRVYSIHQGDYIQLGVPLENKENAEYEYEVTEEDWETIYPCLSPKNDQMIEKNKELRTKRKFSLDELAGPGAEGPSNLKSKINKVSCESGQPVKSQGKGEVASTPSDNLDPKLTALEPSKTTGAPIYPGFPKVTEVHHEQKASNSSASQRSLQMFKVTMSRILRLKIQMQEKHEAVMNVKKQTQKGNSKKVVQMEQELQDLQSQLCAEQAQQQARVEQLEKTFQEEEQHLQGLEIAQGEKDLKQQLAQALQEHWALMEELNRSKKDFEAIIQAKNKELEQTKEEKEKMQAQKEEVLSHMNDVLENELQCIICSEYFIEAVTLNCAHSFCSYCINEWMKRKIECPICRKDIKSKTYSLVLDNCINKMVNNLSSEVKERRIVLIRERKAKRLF
UniProt Q9ULI2: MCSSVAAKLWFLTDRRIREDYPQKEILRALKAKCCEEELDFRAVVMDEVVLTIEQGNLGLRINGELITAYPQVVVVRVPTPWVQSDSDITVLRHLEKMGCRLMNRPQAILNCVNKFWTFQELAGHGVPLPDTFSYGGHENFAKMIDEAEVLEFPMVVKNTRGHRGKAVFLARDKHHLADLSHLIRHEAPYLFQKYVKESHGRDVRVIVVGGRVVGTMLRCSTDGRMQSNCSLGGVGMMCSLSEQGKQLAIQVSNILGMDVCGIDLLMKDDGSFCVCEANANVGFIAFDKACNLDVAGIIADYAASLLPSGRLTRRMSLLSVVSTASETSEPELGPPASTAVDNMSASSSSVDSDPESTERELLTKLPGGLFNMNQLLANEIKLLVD
UniProt Q8IUC4: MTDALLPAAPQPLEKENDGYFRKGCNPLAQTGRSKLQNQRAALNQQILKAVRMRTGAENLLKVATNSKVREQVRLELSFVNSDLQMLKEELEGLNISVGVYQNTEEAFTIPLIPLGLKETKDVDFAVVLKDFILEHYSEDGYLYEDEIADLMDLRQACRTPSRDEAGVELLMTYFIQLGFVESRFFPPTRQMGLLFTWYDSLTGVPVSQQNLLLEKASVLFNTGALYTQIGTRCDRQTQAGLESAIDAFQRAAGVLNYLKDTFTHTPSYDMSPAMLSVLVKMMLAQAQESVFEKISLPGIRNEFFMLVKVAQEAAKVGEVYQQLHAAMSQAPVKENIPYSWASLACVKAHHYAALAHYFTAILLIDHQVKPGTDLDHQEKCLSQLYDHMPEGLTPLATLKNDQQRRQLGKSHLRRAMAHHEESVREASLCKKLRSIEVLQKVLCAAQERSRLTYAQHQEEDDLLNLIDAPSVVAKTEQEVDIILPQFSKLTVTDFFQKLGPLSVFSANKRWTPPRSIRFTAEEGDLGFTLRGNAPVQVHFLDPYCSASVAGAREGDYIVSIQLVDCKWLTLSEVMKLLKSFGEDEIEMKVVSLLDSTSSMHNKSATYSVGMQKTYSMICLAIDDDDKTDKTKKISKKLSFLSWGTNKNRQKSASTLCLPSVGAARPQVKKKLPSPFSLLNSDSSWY
UniProt Q9HCK4: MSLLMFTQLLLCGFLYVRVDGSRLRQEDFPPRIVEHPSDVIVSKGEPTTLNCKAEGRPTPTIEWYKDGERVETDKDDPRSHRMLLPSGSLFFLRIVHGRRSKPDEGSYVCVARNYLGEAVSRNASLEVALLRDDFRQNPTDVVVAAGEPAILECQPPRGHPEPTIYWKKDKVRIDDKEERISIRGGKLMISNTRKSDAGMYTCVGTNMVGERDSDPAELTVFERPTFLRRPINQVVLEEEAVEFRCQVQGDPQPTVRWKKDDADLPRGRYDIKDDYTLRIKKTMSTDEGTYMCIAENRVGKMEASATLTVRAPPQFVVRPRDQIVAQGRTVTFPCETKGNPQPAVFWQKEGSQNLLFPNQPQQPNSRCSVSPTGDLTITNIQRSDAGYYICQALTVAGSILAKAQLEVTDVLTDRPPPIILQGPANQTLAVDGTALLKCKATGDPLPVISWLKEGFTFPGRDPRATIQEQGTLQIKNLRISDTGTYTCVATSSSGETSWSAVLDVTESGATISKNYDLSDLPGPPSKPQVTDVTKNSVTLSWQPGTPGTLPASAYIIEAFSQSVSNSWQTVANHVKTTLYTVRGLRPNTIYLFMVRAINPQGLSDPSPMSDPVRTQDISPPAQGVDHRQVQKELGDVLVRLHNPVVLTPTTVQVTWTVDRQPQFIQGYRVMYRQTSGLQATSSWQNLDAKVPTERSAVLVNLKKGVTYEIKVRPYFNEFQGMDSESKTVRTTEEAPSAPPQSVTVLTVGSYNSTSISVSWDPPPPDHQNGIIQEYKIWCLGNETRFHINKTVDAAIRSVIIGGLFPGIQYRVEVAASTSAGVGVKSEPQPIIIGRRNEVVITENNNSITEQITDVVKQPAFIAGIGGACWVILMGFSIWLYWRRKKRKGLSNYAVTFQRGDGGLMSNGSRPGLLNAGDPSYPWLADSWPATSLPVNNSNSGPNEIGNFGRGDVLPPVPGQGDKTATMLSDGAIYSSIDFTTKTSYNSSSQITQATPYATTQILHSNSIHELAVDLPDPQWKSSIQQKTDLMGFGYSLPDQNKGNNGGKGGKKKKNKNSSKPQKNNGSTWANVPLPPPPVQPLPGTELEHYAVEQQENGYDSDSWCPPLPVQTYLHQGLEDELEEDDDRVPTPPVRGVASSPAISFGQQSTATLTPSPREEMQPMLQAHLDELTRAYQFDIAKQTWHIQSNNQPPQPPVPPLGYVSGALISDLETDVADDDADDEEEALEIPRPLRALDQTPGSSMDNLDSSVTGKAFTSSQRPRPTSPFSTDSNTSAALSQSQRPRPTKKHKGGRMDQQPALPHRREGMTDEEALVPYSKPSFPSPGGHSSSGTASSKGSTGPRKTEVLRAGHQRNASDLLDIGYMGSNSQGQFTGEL
UniProt Q99942: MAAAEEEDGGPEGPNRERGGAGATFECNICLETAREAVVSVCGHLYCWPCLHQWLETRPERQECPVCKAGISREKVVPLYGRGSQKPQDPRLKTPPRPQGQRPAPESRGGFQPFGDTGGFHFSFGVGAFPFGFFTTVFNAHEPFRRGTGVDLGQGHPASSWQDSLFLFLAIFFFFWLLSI
UniProt Q5M7Z0: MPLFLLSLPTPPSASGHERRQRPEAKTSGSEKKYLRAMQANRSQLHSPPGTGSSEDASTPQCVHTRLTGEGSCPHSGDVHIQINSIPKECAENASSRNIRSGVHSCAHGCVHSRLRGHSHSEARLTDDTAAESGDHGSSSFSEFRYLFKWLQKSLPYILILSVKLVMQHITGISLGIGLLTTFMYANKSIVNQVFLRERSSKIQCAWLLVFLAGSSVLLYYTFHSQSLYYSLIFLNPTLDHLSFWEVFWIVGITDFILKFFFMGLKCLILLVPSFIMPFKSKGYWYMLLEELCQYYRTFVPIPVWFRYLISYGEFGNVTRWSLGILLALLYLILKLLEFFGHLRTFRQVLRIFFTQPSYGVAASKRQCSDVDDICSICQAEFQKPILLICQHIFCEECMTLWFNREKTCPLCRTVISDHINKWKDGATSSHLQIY
UniProt Q96LT9: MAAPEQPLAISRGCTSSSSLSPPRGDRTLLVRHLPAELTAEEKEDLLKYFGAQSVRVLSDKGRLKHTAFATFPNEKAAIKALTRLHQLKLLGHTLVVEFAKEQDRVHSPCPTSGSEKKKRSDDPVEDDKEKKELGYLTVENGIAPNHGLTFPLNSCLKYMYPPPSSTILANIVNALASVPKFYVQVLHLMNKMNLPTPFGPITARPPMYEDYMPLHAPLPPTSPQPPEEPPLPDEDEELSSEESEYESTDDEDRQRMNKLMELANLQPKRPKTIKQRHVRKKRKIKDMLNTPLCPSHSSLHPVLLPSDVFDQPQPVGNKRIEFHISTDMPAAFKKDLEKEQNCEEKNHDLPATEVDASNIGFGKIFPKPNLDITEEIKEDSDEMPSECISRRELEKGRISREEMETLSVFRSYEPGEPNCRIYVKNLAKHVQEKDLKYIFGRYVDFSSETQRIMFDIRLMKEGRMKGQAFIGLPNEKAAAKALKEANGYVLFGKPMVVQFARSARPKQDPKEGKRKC
UniProt Q9H9Y2: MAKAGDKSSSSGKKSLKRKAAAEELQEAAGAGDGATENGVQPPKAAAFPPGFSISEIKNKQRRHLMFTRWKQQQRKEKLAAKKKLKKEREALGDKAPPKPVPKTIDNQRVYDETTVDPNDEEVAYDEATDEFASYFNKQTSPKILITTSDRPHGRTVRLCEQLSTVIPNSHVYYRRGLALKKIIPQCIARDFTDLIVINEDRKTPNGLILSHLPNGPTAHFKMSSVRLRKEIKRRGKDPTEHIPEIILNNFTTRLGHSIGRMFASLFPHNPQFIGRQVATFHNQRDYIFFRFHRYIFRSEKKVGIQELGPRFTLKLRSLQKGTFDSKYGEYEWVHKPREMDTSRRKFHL

How the values were obtained:
Assay in all cases: log2 fold change, soluble protein after heating vs DMSO (PISA); higher = thermal stabilisation; K562 lysate, 10 uM; active = over 0.2 and 3.5 SD of the protein, either way, in both replicates (recomputed)
[1] = compound: CCCS(=O)(=O)Nc1ccc(F)c(C(=O)c2c[nH]c3ncc(Cl)cc23)c1F
Outline: (§1)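 Following dounce homogenisation of K562 pellets in PBS pH 7.4 with 1 mM MgCl2, crude extract at 1 mg/mL protein was incubated for 30 min with 10 μM compound. Aliquots were then heated for 3 min over 48°C-58°C and pooled, NP-40 was added to 0.5% at 4°C, and soluble protein was recovered as the supernatant at 21,000xg for 90 min. Channel-sum-equalised TMTpro 16plex LC-MS/MS quantified this protein. Each value, from duplicates, is a log-two fold change in thermal stability relative to solvent controls.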

[2] = compound: CCN(CCCOc1ccc2c(Nc3cc(CC(=O)Nc4cccc(F)c4)[nH]n3)ncnc2c1)CCOP(=O)(O)O [barasertib]
Outline: as §1

[3] = compound: CC[C@@H]1C(=O)N(C)c2cnc(Nc3ccc(C(=O)N[C@H]4CC[C@H](N5CCN(CC6CC6)CC5)CC4)cc3OC)nc2N1C(C)C [volasertib]
Outline: as §1

[4] = compound: CCn1cc(-c2ccnc3[nH]c(-c4cccc(CN(C)C)c4)cc23)c(-c2ccc(NC(=O)N(C)C)cc2)n1
Outline: as §1

[5] = compound: CN1CCC(CNc2ccc3ncc(-c4cccc(OC(F)(F)F)c4)n3n2)CC1
Outline: as §1

[6] = compound: CN1CCN(CCOc2cc(OC3CCOCC3)c3c(Nc4c(Cl)ccc5c4OCO5)ncnc3c2)CC1 [saracatinib]
Outline: as §1

[7] = compound: CN1CCN(c2nc(C3=C(c4c[nH]c5ccccc45)C(=O)NC3=O)c3ccccc3n2)CC1 [sotrastaurin]
Outline: as §1

[8] = compound: CN1CC[C@H](c2c(O)cc(O)c3c(=O)cc(-c4ccccc4Cl)oc23)[C@H](O)C1 [alvocidib]
Outline: as §1

[9] = compound: CNc1nc(-c2ccc3c(N)n[nH]c3c2)cc(N2C[C@@H](C(=O)NC3CCCCC3)CC[C@H]2C)n1
Outline: as §1

[10] = compound: COc1cc2nc(-c3cc(F)ccc3O)nc(N[C@@H]3CNC[C@H]3C(C)(C)O)c2cc1OC
Outline: as §1

[11] = compound: COc1cc(Nc2ncc3c(n2)-c2ccc(Cl)cc2C(c2c(F)cccc2OC)=NC3)ccc1C(=O)O [alisertib]
Outline: as §1

[12] = compound: COc1cc2ncnc(Nc3ccc(F)c(Cl)c3)c2cc1OCCCN1CCOCC1 [gefitinib]
Outline: as §1

[13] = compound: CNC(=O)C1=CC=CC=C1NC2=NC(=NC=C2Cl)NC3=C(C=C(C=C3)N4CCOCC4)OC
Outline: as §1

[14] = compound: CCn1c(C(=O)N(C2CC2)C2CC2)cc2c3c(ncn3C)c(Nc3cc(C)n(C)n3)nc21
Outline: as §1

[15] = compound: CN1CCc2c(c3ccccc3n2Cc2ccc(C(=O)NO)cc2)C1 [Tubastatin A]
Outline: as §1

[16] = compound: CC[C@@H]1C(=O)N(C)c2cnc(Nc3ccc(C(=O)NC4CCN(C)CC4)cc3OC)nc2N1C1CCCC1
Outline: as §1

[17] = compound: COC(=O)N[C@@H](C)CNc1nccc(-c2cn(C(C)C)nc2-c2cc(Cl)cc(NS(C)(=O)=O)c2F)n1 [encorafenib]
Outline: as §1

[18] = compound: COC(=O)[C@H](CCSC)NC(=O)C1=C(C=C(C=C1)NC[C@H](CS)N)C2=CC=CC=C2
Outline: as §1

[19] = compound: CCCS(=O)(=O)Nc1ccc(F)c(C(=O)c2c[nH]c3ncc(-c4ccc(Cl)cc4)cc23)c1F [vemurafenib]
Outline: as §1

[20] = compound: CNC(=O)c1ccc(Nc2ncc(C(F)(F)F)c(NCc3nccnc3N(C)S(C)(=O)=O)n2)cc1 [defactinib]
Outline: as §1

Measured: log2 fold change

RNF167 (UniProt Q9H6Y7)
inactive: [1] 0.043 | [2] 0.003 | [3] 0.036 | [4] -0.007 | [5] 0.049 | [6] 0.06 | [7] -0.021 | [8] 0.006 | [9] -0.088 | [10] -0.048

RLF (UniProt Q13129)
inactive: [1] -0.1 | [3] 0.162 | [4] -0.121 | [5] -0.019 | [6] 0.035 | [7] -0.044 | [8] 0.047 | [9] -0.003 | [11] 0.18 | [10] -0.066 | [12] 0.13

RNF24 isoform 2 (UniProt Q9Y225)
inactive: [2] 0.122 | [4] 0.033 | [5] -0.084 | [7] 0.025 | [8] 0.079 | [13] 0.003 | [11] -0.113 | [12] -0.108

RPL10, A0A087WV22
inactive: [2] -0.45 | [14] 0.065 | [6] 0.744 | [7] 0.218 | [15] -0.06 | [13] -0.542 | [9] 0.219

RNF17 (UniProt Q9BXT8)
inactive: [1] 0.022 | [2] 0.133 | [16] 0.099 | [3] 0.066 | [14] -0.035 | [4] 0.113 | [5] -0.421 | [6] 0.257 | [7] 0.046 | [8] -0.006 | [15] 0.079 | [13] 0.096 | [9] -0.183 | [17] 0.061 | [18] -0.032 | [10] -0.057

RMI2 (UniProt Q96E14)
inactive: [19] 0.239 | [16] -0.109 | [14] -0.007 | [6] -0.008 | [7] -0.01 | [15] -0.146 | [13] -0.074 | [20] 0.265 | [9] 0.007 | [17] -0.054 | [18] -0.021

RHOQ (UniProt P17081)
inactive: [19] 0.054 | [16] -0.077 | [20] -0.031 | [17] 0.002 | [18] 0.094

RHOBTB3 (UniProt O94955)
inactive: [16] -0.007 | [13] -0.152 | [17] 0.026 | [18] 0.07 | [11] -0.041 | [12] -0.056

RNF8 (UniProt O76064)
inactive: [2] 0.063 | [16] -0.103 | [14] 0.028 | [4] -0.184 | [5] 0.079 | [6] 0.073 | [7] 0.015 | [8] -0.086 | [15] -0.067 | [13] 0.083 | [9] 0.08 | [17] -0.018 | [18] 0.06 | [11] -0.054 | [12] 0.039

RIMKLB (UniProt Q9ULI2)
inactive: [14] -0.076 | [15] -0.283

RHPN2 (UniProt Q8IUC4)
inactive: [1] 0 | [16] 0.03 | [3] -0.163 | [14] 0.078 | [7] -0.095 | [15] -0.016 | [13] 0.041 | [17] -0.09 | [18] 0.127 | [11] -0.063 | [10] 0.031 | [12] 0.205

ROBO2 isoform 3 (UniProt Q9HCK4)
inactive: [1] 0.071 | [3] 0.045 | [7] -0.001 | [15] -0.009 | [13] 0.03 | [10] 0.009
active: [14] 0.523

RNF5 (UniProt Q99942)
inactive: [2] 0.159 | [16] 0.009 | [14] 0.081 | [4] -0.005 | [5] -0.039 | [6] -0.02 | [7] -0.125 | [8] -0.016 | [15] -0.055 | [13] -0.099 | [9] -0.035 | [17] 0.063 | [18] -0.084 | [11] 0.081 | [12] 0.03

Two consecutive records out of the list so far, for reference:
RHPN2 (UniProt Q8IUC4)
inactive: [1] 0 | [16] 0.03 | [3] -0.163 | [14] 0.078 | [7] -0.095 | [15] -0.016 | [13] 0.041 | [17] -0.09 | [18] 0.127 | [11] -0.063 | [10] 0.031 | [12] 0.205

ROBO2 isoform 3 (UniProt Q9HCK4)
inactive: [1] 0.071 | [3] 0.045 | [7] -0.001 | [15] -0.009 | [13] 0.03 | [10] 0.009
active: [14] 0.523

Continued.

RNASEH2B, A0A1B0GUE7
inactive: [1] -0.061 | [3] -0.064 | [11] 0.04 | [10] 0.039 | [12] -0.028

RNFT1 (UniProt Q5M7Z0)
inactive: [16] -0.183 | [14] -0.067 | [4] -0.308 | [5] 0.183 | [6] -0.059 | [8] 0.06 | [15] 0.037 | [13] -0.098 | [9] 0.036 | [17] 0.162 | [18] -0.172 | [11] -0.208 | [12] -0.319

RNPC3 (UniProt Q96LT9)
inactive: [1] -0.02 | [3] 0.019 | [14] -0.119 | [4] -0.009 | [5] -0.032 | [6] -0.022 | [7] -0.074 | [8] 0.012 | [15] -0.099 | [13] -0.047 | [9] 0.082 | [11] 0.118 | [10] 0.056 | [12] -0.08

RLIM (UniProt Q9NVW2)
inactive: [2] 0.065 | [7] -0.055

RPL32 (UniProt D3YTI8)
inactive: [1] -0.058 | [3] -0.004 | [6] 0.002 | [13] -0.068 | [9] 0.079 | [10] -0.016

RPF1 (UniProt Q9H9Y2)
inactive: [1] 0.022 | [2] 0.215 | [3] -0.134 | [14] -0.223 | [7] -0.113 | [15] -0.093 | [10] 0.027
